Assay results as given in patent publication US20120108422A1, “Antifungal 1,2,4-triazolyl Derivatives” (BASF SE, priority 2009, published 2012).
Some entries share one result that the patent states for a list of compounds.

Test system: Phytophthora infestans
Format: in vivo
Conditions: 300 ppm active compound, sprayed one day before inoculation, tomato seedlings, assessed after 6 days; untreated plants 90% infected

Cc1ccc(CC(C)CC(O)(Cn2nc[nH]c2=S)C(C)(C)C)cc1 (stereo not drawn) [Example 7, 2-[2-tert-butyl-5-(4-methylphenyl)-2-hydroxy-4-methyl-pentyl]-2,4-dihydro-[1,2,4]triazole-3-thione]
infection (% diseased leaf area): at most 20%

CC(C)(C)C(O)(CCCCc1ccc(F)cc1)Cn1nc[nH]c1=S (stereo not drawn) [Example 15, 1-[2-tert-Butyl-6-(4-fluorophenyl)-2-hydroxyhexyl]-1H-1,2,4-triazole-5(4H)-thione]
infection (% diseased leaf area): at most 20%

CC(C)(C)C(O)(CCCCc1ccc(Cl)cc1)Cn1nc[nH]c1=S (stereo not drawn) [Example 17, 1-[2-tert-butyl-6-(4-chlorophenyl)-2-hydroxyhexyl]-1H-1,2,4-triazole-5(4H)-thione]
infection (% diseased leaf area): at most 20%
